{"source": "patent US7262169", "about": "(dated 2007)", "assay": "general procedure: solution-phase peptide synthesis; EDC hydrochloride with HOBt, HOAt or HOPO; N-ethylmorpholine", "conditions": "HCl salt (tetrapeptide); for final HPLC purity: 210 nm", "key": {"[1]": {"conditions": "late stage modification step, HPLC A % (210 nm)"}}, "data": [{"substance": "Boc-Chg-Gln-Ser-Leu-O-benzyl", "values": [{"measurement": "step yield", "setting": "coupling step", "value": 93, "unit": "%"}, {"measurement": "crude HPLC purity", "setting": "coupling step, HPLC A % (210 nm)", "value": 96.0, "unit": "A %"}]}, {"substance": "Fm-Glutaryl-Hyp-Ala-Ser-Chg-Gln-Ser-Leu-O-benzyl", "values": [{"measurement": "step yield", "setting": "coupling step, run 1", "value": 97.0, "unit": "%"}, {"measurement": "step yield", "setting": "coupling step, run 2", "value": 100.0, "unit": "%"}, {"measurement": "crude HPLC purity", "setting": "coupling step, HPLC A % (210 nm), run 1", "value": 96.5, "unit": "A %"}, {"measurement": "crude HPLC purity", "setting": "coupling step, HPLC A % (210 nm), run 2", "value": 98.0, "unit": "A %"}]}, {"substance": "Fm-Glutaryl-Hyp-Ala-Ser-Chg-Gln-Ser-Leu-OH", "values": [{"measurement": "step yield", "setting": "late stage modification step, run 1", "value": 85, "unit": "%"}, {"measurement": "step yield", "setting": "late stage modification step, run 2", "value": 97.5, "unit": "%"}, {"measurement": "crude HPLC purity", "setting": "late stage modification step, HPLC A % (210 nm), run 1", "value": 88.3, "unit": "A %"}, {"measurement": "crude HPLC purity", "setting": "late stage modification step, HPLC A % (210 nm), run 2", "value": 85.6, "unit": "A %"}, {"measurement": "final HPLC purity", "setting": "purification step", "value": 94.9, "unit": "A %"}, {"measurement": "step yield", "setting": "purification step", "value": 93.0, "unit": "% recovery"}]}, {"substance": "HCl.H-Chg-Gln-Ser-Leu-OBn", "values": [{"measurement": "crude HPLC purity", "setting": "[1]", "value": 83.5, "unit": "A %"}, {"measurement": "crude purity (method not given)", "setting": "[1]", "value": 76, "unit": "%"}, {"measurement": "step yield", "setting": "late stage modification step, from the N-Boc.tetrapeptide-OBn", "value": 61, "unit": "%"}, {"measurement": "final HPLC purity", "setting": "purification step, run 1", "value": 95.7, "unit": "A %"}, {"measurement": "final HPLC purity", "setting": "purification step, run 2", "value": 97.5, "unit": "A %"}, {"measurement": "step yield", "setting": "purification step, from the N-Boc.tetrapeptide-OBn", "value": 83.1, "unit": "%"}]}]}
